Laboratory results from patent publication US20090226913A1.
No constants are given. Whether binding was seen depends on the method and setting. In cells and extracts the contact can be indirect. Some entries that bind do so weakly or less than the wild type. Tags and fused reporters may be left off the sequences shown.

Target: T1, Dok-2 protein (human) (UniProt O60496)
T1 sequence (chain, phosphotyrosine at residue 299): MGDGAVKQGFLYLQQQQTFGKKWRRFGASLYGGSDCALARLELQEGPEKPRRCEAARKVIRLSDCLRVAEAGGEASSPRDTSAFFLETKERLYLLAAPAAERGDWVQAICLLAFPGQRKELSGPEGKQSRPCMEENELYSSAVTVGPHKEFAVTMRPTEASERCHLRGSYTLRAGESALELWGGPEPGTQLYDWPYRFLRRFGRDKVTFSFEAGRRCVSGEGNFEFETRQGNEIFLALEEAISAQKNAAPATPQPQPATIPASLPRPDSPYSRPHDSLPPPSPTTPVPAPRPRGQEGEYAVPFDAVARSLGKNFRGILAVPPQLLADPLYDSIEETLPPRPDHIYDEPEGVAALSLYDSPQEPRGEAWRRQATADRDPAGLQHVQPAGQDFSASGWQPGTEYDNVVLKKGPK
Test: GST pull-down from NP40 lysate of CML cells; SDS-PAGE, Dok-2 band excised and identified by MALDI-TOF

binding: binds
B1: GST fusion of the SH2 domain of SHIP1 (protein, UniProt Q92835 5-101, looked up, not shown: a dimerising Fc or GST)
chain: WNHGNITRSKAEELLSRTGKDGSFLVRASESISRAYALCVLYRNCVYTYRILPNEDDKFTVQASEGVSMRFFTKLDQLIEFYKKENMGLVTHLQYPV
